Source: patent publication US20230024652A1 (NATIONAL MARINE BIODIVERSITY INSTITUTE OF KOREA, priority 2020, published 2023)
HELM strings list residues between dots; [ac] is acetyl, [am] amide, other brackets name non-standard units.

Assay: peptide made by a vendor
Conditions: whole synthesis

PEPTIDE1{G.W.L.I.R.G.A.I.H.A.G.K.A.I.H.G.L.I.H.R.R.R.H}$$$$V2.0
final purity (method not given): 92.5%
